Binding data for one molecule are collected here from publication doi:10.1101/2023.08.10.552743.

Amino acid sequences for entries named in this document (tags omitted).
UniProt Q5TA45: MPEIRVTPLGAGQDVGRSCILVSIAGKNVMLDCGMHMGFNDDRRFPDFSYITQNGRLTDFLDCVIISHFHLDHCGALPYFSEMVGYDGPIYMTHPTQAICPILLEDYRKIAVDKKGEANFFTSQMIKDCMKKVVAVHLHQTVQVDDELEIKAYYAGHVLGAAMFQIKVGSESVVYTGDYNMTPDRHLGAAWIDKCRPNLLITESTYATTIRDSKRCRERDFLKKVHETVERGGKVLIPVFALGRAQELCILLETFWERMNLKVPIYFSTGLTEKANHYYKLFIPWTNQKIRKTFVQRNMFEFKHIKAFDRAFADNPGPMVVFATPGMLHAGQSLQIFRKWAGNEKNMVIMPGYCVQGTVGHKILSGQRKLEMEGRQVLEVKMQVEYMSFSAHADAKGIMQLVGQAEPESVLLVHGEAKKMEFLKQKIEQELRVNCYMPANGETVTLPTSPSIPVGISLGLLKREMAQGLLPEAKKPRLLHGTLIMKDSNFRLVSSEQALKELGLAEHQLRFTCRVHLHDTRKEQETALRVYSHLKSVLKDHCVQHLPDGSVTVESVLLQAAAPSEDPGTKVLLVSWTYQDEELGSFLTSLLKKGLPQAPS

The target of this assay is Flag-INTS11 (human) (UniProt Q5TA45). The assay is described as follows: affinity purification with mass spectrometry.

These are yes or no findings as the source states them, for the method shown. In cells and extracts the contact can be indirect. These calls come from enrichment with a bait or labelling near it, and not all partners need be listed.

B1: BRAT1 (endogenous, HEK293T) (protein, UniProt Q6PJG6-1 1-821)
chain: MDPECAQLLPALCAVLVDPRQPVADDTCLEKLLDWFKTVTEGESSVVLLQEHPCLVELLSHVLKVQDLSSGVLSFSLRLAGTFAAQENCFQYLQQGELLPGLFGEPGPLGRATWAVPTVRSGWIQGLRSLAQHPSALRFLADHGAVDTIFSLQGDSSLFVASAASQLLVHVLALSMRGGAEGQPCLPGGDWPACAQKIMDHVEESLCSAATPKVTQALNVLTTTFGRCQSPWTEALWVRLSPRVACLLERDPIPAAHSFVDLLLCVARSPVFSSSDGSLWETVARALSCLGPTHMGPLALGILKLEHCPQALRTQAFQVLLQPLACVLKATVQAPGPPGLLDGTADDATTVDTLLASKSSCAGLLCRTLAHLEELQPLPQRPSPWPQASLLGATVTVLRLCDGSAAPASSVGGHLCGTLAGCVRVQRAALDFLGTLSQGTGPQELVTQALAVLLECLESPGSSPTVLKKAFQATLRWLLSSPKTPGCSDLGPLIPQFLRELFPVLQKRLCHPCWEVRDSALEFLTQLSRHWGGQADFRCALLASEVPQLALQLLQDPESYVRASAVTAMGQLSSQGLHAPTSPEHAEARQSLFLELLHILSVDSEGFPRRAVMQVFTEWLRDGHADAAQDTEQFVATVLQAASRDLDWEVRAQGLELALVFLGQTLGPPRTHCPYAVALPEVAPAQPLTEALRALCHVGLFDFAFCALFDCDRPVAQKSCDLLLFLRDKIASYSSLREARGSPNTASAEATLPRWRAGEQAQPPGDQEPEAVLAMLRSLDLEGLRSTLAESSDHVEKSPQSLLQDMLATGGFLQGDEADCY
B1: the binding result is given as “binds”.
